Reference: publication PMC7418988, “IgaA negatively regulates the Rcs Phosphorelay via contact with the RcsD Phosphotransfer Protein” (PLoS Genetics, 2020)
Results are given in words; binding and its absence hold for the method and conditions named. Where a sequence is shown, tags or fusion partners need not be part of it.

Experiments:
Test in all cases: two-hybrid; bacterial adenylate cyclase two-hybrid (BACTH): T18 and T25 fragments fused C-terminally to the two proteins, two plasmids in cyaA deficient E. coli BTH101; beta-galactosidase activity (Miller units) against fusion plus empty cognate vector as background; threshold for reliable interaction 4x over background; IgaA/RcsD also tested in rcsB, rcsC, rcsF and rcsD mutant hosts; in the rows the T25 fusion is the binder, the T18 fusion the target
[1] = target: T1, RcsC fused to the T18 or the T25 fragment of adenylate cyclase (E. coli) (UniProt P0DMC5)
T1 sequence: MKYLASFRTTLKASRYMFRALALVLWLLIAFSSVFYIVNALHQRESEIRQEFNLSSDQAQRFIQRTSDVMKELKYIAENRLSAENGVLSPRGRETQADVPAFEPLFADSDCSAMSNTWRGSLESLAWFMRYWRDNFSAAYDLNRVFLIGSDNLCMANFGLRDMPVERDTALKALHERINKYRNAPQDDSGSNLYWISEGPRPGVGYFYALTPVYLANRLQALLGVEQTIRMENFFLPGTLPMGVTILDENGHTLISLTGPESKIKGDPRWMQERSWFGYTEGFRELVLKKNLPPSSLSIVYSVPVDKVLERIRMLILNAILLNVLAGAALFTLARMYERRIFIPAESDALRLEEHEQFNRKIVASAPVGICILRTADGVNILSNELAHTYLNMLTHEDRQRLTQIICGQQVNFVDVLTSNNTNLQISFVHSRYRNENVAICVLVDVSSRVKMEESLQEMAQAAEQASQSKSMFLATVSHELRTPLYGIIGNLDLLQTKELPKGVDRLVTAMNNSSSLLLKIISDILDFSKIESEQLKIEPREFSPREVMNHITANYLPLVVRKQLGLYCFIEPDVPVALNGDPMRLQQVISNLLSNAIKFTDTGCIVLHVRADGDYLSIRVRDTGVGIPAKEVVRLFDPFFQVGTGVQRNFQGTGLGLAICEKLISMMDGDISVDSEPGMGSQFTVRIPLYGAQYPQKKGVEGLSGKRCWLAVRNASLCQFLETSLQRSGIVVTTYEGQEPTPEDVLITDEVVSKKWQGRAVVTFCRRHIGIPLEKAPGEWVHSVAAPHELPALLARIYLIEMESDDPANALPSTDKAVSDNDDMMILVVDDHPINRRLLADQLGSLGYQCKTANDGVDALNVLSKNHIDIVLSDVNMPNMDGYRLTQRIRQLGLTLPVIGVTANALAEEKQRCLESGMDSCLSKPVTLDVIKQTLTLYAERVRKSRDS

[2] = target: T2, RcsC_(Δ45-314)-T18 (E. coli) (UniProt P0DMC5)
T2 sequence: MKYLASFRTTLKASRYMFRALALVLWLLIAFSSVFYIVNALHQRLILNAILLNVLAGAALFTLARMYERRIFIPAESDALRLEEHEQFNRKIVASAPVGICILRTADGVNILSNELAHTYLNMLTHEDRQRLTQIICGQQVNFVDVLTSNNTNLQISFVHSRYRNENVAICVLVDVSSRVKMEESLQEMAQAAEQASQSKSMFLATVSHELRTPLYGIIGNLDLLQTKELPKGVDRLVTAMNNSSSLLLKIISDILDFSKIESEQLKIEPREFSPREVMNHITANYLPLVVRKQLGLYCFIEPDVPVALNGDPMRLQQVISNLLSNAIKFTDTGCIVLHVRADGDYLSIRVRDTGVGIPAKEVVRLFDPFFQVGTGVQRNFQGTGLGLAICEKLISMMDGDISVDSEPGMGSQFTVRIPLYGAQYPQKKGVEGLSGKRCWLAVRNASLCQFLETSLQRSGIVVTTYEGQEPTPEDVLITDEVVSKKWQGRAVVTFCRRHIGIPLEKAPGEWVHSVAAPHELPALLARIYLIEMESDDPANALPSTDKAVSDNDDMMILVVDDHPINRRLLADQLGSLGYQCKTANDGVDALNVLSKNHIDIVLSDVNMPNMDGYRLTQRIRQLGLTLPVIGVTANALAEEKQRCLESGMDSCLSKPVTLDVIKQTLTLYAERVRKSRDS

[3] = target: T3, RcsC_(326-C)-T18 (E. coli) (UniProt P0DMC5)
T3 sequence: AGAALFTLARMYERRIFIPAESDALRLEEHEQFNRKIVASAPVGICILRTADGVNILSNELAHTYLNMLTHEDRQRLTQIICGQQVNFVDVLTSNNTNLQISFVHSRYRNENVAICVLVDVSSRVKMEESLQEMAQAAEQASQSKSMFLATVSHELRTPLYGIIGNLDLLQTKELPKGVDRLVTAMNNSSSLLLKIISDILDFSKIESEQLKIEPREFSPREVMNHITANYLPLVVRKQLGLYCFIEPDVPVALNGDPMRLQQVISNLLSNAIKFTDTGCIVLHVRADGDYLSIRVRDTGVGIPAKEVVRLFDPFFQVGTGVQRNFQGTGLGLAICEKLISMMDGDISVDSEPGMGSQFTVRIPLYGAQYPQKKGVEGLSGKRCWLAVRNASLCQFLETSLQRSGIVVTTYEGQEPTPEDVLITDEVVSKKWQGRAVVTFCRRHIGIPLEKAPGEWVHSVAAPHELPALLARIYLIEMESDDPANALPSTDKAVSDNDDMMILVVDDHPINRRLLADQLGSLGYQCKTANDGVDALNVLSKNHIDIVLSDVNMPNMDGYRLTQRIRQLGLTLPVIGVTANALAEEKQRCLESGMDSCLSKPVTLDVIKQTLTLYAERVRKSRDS

Measured: binding

B1: IgaA fused to the T18 or the T25 fragment of adenylate cyclase (natural protein, E. coli, UniProt P45800 1-711, looked up)
chain: MSTIVIFLAALLACSLLAGWLIKVRSRRRQLPWTNAFADAQTRKLTPEERSAVENYLESLTQVLQVPGPTGASAAPISLALNAESNNVMMLTHAITRYGISTDDPNKWRYYLDSVEVHLPPFWEQYINDENTVELIHTDSLPLVISLNGHTLQEYMQETRSYALQPVPSTQASIRGEESEQIELLNIRKETHEEYALSRPRGLREALLIVASFLMFFFCLITPDVFVPWLAGGALLLLGAGLWGLFAPPAKSSLREIHCLRGTPRRWGLFGENDQEQINNISLGIIDLVYPAHWQPYIAQDLGQQTDIDIYLDRHVVRQGRYLSLHDEVKNFPLQHWLRSTIIAAGSLLVLFMLLFWIPLDMPLKFTLSWMKGAQTIEATSVKQLADAGVRVGDTLRISGTGMCNIRTSGTWSAKTNSPFLPFDCSQIIWNDARSLPLPESELVNKATALTEAVNRQLHPKPEDESRVSASLRSAIQKSGMVLLDDFGDIVLKTADLCSAKDDCVRLKNALVNLGNSKDWDALVKRANAGKLDGVNVLLRPVSAESLDNLVATSTAPFITHETARAAQSLNSPAPGGFLIVSDEGSDFVDQPWPSASLYDYPPQEQWNAFQKLAQMLMHTPFNAEGIVTKIFTDANGTQHIGLHPIPDRSGLWRYLSTTLLLLTMLGSAIYNGVQAWRRYQRHRTRMMEIQAYYESCLNPQLITPSESLIE
notes: IgaA (E. coli homolog, gene yrfF), five-pass inner membrane protein; Two fusions of the same protein, each chain with ONE of the two tags: T18 (pEAW1) or T25 (pEAW2); also called YrfF; IgaA-T18; source: bacterial two-hybrid (BACTH) fusion, expressed from a plasmid in E. coli BTH101; not shown: T18 fragment of Bordetella adenylate cyclase (Cya), C-terminal, kept; T25 fragment of Bordetella …
no binding: [1] | [2] | [3]
